We go through two molecules from patent US20170191058A1, “PERFORIN 2 DEFENSE AGAINST INVASIVE AND MULTIDRUG RESISTANT PATHOGENS” (priority 2012, published 2017).

Assay [1] addresses T1, cytoplasmic domain of Perforin-2 (P2), yeast two hybrid bait (UniProt A1L314).
T1 sequence (looked up): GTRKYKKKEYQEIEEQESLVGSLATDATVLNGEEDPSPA
Description: yeast two hybrid.

Assay [2] has as its target T2, P-2-GFP fusion protein (Perforin-2 with GFP fused to the C-terminus of the cytoplasmic domain) (murine) (UniProt A1L314).
T2 sequence (looked up): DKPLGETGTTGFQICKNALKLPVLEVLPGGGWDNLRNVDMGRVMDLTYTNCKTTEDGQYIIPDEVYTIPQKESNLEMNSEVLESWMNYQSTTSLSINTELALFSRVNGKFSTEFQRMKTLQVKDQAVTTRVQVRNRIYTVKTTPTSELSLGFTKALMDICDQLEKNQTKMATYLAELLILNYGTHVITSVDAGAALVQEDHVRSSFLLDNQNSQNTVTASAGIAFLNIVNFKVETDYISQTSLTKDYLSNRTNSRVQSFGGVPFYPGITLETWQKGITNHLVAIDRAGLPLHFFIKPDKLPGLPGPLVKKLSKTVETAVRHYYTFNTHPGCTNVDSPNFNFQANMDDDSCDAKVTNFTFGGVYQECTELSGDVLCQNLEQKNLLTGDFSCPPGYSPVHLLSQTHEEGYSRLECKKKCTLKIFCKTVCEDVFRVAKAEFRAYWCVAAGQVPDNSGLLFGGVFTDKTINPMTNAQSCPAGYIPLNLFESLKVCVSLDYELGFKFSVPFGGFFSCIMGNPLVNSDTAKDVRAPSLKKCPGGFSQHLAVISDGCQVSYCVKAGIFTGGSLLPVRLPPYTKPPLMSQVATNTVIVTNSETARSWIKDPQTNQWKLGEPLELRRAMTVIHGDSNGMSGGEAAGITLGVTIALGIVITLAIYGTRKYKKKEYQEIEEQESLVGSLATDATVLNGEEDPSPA
Description: co-immunoprecipitation from P-2-GFP transfected RAW cells.

For assay [3], the target named is T2, P-2-GFP fusion protein (Perforin-2 with GFP fused to the C-terminus of the cytoplasmic domain) (murine). Description: immunoprecipitation with anti-GFP, pull down of RASA2.

No constants are given. Whether binding was seen depends on the method and setting. For part of these data: Binding seen in cells or lysates may run through a third protein. Some results given as binding are weak or reduced against the parent protein; the word gives no strength. For part of these data: Sequences can lack the tags named with a protein.

B1: P21 RAS activator2/gap1m (sfpi1) (RASA2), yeast two hybrid clone (protein, UniProt P58069 2-847, looked up)
chain: AAAAPAAAASPEAPAVSGSADPETGDEDSREVRVLQSLRGRIYEAKNLLPYLGPNKMRDCFCTINLDQEEVYRTQVVEKSLSPYFSEEFYFEIPRTFQYLSFYVYDKNVLQRDLRIGKVAIKKEDLCSHSGKETWFSLQPIDSNSEVQGKVHLELRLNELITENGTVCQQLVVHIKACHGLPLINGQSCDPYATVSLVGPSRNDQKKTKVKKKTSNPQFNEVFYFEVTRSSSYSRKSQFQVEEEDIEKLEIRIDLWNNENLVQDVFLGEIKVPVNVLRSDSFHQAWYLLQPRDNGNKSSKTDDLGSLLLTLCYTEDCVLPSEYYGPLKTLLLKSPDVQPVSASAAYILGEICQDQKDAVLPLVRLLLHHNKLVPFITAVAELDLKDTPDANAIFRGNSLATQCLTEMMKIVGGHYLKVTLKPVLDEICESSKSCEIDPVKLKEGDNVENNKENLYYYVDKVFNTIVGSSVSCPTVMCDIFYSLRQMAAKKFPNHPHVQYSAVSSFVFLRFFAVAILSPHAFHLRPHYPDTQTVRTLTLISKTIQIIGNWGCQSRKKSRFKKSVMCEFLKMFQEERYFTDVKKFLDEISSTETKESSGTSEPVHLKEGEMYKRAQGRTRIGKKNFKKRWFCLTSRELTYHRQQGKDAIYTIPVKNILAVEKLEEGSFNKKNMFQVIHTEKTLYIQANNCVEANEWIDVLCRVSRCNHNRLSSFHPSAYLNGNWLCCQETSESTPGCKPCTAGIPADIQIDIDEDRETERIYSIFTLSLLKLQKMEETCGSIAVYQGPQKEPGYSKFTIEDSVATFKTIQQIKSTIEKLDEPHEKYRKKRSSSAKYGSKENPIVGKIS
Regarding B1, the binding entry in assay [1] is on record as “binds”.

B2: RASA2 of RAW cells (protein, UniProt P58069 2-847, looked up)
chain: AAAAPAAAASPEAPAVSGSADPETGDEDSREVRVLQSLRGRIYEAKNLLPYLGPNKMRDCFCTINLDQEEVYRTQVVEKSLSPYFSEEFYFEIPRTFQYLSFYVYDKNVLQRDLRIGKVAIKKEDLCSHSGKETWFSLQPIDSNSEVQGKVHLELRLNELITENGTVCQQLVVHIKACHGLPLINGQSCDPYATVSLVGPSRNDQKKTKVKKKTSNPQFNEVFYFEVTRSSSYSRKSQFQVEEEDIEKLEIRIDLWNNENLVQDVFLGEIKVPVNVLRSDSFHQAWYLLQPRDNGNKSSKTDDLGSLLLTLCYTEDCVLPSEYYGPLKTLLLKSPDVQPVSASAAYILGEICQDQKDAVLPLVRLLLHHNKLVPFITAVAELDLKDTPDANAIFRGNSLATQCLTEMMKIVGGHYLKVTLKPVLDEICESSKSCEIDPVKLKEGDNVENNKENLYYYVDKVFNTIVGSSVSCPTVMCDIFYSLRQMAAKKFPNHPHVQYSAVSSFVFLRFFAVAILSPHAFHLRPHYPDTQTVRTLTLISKTIQIIGNWGCQSRKKSRFKKSVMCEFLKMFQEERYFTDVKKFLDEISSTETKESSGTSEPVHLKEGEMYKRAQGRTRIGKKNFKKRWFCLTSRELTYHRQQGKDAIYTIPVKNILAVEKLEEGSFNKKNMFQVIHTEKTLYIQANNCVEANEWIDVLCRVSRCNHNRLSSFHPSAYLNGNWLCCQETSESTPGCKPCTAGIPADIQIDIDEDRETERIYSIFTLSLLKLQKMEETCGSIAVYQGPQKEPGYSKFTIEDSVATFKTIQQIKSTIEKLDEPHEKYRKKRSSSAKYGSKENPIVGKIS
As to B2, the binding entry in assay [2] and in assay [3] was “binds” throughout.
